The supplement of paper PMC10849652
This is one part of the list.

The chains behind the UniProt entries cited, without tags or fusion partners. Where a name states a change or a piece, a line headed by the entry shows the natural chain unless it says otherwise.
UniProt Q96CQ1: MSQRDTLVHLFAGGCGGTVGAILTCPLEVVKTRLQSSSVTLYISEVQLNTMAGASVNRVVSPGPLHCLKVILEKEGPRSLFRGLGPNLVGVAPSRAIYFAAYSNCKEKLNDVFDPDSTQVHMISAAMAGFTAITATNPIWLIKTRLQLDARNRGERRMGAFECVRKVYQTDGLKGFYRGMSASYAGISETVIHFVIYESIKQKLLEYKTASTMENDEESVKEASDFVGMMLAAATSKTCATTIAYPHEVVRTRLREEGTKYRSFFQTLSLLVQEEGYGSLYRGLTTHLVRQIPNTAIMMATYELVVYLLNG
UniProt Q9C0K1: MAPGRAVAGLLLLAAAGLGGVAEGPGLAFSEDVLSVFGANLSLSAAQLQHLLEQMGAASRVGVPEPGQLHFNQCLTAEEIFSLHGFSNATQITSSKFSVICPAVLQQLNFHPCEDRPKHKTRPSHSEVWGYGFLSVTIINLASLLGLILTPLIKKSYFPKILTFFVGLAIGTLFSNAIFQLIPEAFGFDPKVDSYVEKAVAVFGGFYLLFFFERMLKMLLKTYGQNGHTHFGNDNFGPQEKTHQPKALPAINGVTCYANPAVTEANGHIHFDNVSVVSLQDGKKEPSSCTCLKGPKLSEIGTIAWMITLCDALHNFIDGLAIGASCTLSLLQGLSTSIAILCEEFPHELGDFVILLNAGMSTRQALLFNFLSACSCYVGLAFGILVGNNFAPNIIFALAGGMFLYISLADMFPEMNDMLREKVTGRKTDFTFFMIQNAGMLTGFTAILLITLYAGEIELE
UniProt O76082: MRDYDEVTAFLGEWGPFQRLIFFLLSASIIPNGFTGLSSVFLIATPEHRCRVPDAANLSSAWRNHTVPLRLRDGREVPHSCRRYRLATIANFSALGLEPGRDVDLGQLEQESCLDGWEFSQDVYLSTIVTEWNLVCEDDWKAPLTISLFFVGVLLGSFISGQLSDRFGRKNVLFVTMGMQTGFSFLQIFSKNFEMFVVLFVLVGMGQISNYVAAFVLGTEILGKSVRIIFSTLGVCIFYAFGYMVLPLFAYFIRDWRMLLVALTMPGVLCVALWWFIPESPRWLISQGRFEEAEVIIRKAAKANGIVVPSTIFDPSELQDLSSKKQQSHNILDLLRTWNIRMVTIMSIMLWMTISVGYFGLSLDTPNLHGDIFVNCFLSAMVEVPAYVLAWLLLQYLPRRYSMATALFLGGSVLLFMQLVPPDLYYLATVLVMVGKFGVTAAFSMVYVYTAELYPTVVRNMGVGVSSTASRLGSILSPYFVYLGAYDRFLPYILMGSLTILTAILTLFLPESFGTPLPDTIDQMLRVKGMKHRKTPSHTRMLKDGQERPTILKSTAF
UniProt F5GZS6: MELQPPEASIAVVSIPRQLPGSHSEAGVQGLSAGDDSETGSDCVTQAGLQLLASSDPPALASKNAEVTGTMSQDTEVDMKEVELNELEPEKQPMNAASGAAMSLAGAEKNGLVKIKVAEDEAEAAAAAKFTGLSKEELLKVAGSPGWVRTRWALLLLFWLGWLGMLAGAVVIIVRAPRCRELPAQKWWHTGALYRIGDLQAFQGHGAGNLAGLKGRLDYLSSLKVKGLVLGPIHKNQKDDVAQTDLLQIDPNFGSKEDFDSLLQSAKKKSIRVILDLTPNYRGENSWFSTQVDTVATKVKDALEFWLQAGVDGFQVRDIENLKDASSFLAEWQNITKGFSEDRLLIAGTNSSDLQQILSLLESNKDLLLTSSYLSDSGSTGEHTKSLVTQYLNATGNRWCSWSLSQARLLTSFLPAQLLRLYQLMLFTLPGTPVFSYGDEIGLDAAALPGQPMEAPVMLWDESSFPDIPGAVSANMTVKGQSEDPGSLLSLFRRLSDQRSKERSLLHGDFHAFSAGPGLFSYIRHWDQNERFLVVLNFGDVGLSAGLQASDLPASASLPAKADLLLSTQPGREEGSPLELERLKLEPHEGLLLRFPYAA
UniProt Q92581: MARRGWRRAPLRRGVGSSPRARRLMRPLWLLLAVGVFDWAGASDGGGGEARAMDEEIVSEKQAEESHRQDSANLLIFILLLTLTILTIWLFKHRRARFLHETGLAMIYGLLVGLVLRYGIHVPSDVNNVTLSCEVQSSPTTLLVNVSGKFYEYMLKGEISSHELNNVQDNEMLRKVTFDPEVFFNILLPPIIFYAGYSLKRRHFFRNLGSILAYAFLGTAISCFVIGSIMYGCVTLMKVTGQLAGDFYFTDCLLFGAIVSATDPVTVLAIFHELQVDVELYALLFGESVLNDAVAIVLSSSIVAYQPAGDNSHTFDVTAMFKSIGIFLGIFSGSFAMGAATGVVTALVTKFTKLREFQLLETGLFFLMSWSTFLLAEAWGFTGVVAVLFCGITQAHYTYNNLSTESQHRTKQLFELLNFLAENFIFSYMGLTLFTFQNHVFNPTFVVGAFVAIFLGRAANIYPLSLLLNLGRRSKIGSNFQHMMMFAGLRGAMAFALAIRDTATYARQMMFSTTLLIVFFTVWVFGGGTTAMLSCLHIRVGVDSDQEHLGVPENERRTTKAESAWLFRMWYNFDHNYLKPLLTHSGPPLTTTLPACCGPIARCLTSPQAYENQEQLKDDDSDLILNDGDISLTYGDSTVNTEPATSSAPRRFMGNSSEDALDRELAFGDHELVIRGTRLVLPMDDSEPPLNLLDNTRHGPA
UniProt Q9NP59: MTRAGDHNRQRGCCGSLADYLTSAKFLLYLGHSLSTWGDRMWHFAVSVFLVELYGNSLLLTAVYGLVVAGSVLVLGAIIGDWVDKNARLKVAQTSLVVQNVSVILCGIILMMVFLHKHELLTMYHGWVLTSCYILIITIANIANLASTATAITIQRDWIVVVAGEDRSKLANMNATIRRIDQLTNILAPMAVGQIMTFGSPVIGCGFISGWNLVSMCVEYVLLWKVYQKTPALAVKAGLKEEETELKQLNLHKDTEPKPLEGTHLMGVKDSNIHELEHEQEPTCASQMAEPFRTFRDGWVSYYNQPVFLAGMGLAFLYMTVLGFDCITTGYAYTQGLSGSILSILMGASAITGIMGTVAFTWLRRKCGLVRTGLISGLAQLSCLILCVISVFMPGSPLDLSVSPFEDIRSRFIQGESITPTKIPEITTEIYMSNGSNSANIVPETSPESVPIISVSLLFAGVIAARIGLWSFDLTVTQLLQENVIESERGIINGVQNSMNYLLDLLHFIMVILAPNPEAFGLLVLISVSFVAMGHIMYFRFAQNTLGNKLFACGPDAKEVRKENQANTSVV
UniProt Q969S0: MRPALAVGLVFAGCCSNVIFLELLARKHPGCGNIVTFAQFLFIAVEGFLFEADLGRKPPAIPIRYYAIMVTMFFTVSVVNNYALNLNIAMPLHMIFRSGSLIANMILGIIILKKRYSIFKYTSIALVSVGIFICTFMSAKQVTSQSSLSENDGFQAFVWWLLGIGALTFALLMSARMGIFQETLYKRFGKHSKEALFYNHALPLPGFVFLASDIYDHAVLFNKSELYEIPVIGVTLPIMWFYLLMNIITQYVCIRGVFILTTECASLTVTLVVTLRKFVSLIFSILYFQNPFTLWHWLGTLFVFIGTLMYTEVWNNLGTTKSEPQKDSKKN
UniProt Q9NQQ7: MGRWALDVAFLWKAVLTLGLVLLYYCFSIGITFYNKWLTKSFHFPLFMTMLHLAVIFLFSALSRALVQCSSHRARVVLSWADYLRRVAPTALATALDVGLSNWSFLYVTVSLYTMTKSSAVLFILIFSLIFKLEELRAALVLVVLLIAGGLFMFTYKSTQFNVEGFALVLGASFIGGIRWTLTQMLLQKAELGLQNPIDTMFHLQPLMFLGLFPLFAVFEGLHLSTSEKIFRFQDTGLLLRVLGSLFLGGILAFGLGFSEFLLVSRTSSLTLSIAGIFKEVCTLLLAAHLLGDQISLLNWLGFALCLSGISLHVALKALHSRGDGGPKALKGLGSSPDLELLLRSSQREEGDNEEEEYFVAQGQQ
UniProt Q5SVS4: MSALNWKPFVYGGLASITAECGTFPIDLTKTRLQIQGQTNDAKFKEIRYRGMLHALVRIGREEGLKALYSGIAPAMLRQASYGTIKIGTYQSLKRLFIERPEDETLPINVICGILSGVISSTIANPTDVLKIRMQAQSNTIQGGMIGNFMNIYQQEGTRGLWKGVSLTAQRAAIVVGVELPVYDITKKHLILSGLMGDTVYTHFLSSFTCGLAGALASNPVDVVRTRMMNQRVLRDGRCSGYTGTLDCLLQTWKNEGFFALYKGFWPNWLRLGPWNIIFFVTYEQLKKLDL
UniProt Q96QD8: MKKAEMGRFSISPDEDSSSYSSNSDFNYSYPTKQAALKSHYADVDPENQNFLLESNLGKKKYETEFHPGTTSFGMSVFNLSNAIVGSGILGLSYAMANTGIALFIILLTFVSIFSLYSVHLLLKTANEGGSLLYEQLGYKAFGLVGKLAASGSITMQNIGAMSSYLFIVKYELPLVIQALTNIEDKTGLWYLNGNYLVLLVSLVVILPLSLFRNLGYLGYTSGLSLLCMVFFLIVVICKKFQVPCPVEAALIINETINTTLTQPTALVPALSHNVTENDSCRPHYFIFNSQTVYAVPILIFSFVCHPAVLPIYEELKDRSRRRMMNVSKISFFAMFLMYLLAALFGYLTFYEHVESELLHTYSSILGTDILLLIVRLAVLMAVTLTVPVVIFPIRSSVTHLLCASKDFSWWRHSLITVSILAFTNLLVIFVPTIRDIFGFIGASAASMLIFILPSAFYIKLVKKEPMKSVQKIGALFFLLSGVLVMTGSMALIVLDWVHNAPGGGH
UniProt Q96K37: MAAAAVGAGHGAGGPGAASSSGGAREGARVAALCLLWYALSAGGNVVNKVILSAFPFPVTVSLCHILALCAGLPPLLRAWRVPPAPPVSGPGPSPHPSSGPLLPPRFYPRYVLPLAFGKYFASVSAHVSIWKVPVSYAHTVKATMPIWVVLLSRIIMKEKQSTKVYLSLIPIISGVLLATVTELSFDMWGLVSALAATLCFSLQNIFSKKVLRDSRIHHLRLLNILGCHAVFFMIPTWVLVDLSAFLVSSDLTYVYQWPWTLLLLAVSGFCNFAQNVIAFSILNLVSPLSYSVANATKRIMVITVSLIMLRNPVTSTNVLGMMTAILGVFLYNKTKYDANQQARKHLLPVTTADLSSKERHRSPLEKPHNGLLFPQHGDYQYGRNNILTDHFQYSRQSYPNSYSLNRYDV
UniProt O14975, whole entry, looked up: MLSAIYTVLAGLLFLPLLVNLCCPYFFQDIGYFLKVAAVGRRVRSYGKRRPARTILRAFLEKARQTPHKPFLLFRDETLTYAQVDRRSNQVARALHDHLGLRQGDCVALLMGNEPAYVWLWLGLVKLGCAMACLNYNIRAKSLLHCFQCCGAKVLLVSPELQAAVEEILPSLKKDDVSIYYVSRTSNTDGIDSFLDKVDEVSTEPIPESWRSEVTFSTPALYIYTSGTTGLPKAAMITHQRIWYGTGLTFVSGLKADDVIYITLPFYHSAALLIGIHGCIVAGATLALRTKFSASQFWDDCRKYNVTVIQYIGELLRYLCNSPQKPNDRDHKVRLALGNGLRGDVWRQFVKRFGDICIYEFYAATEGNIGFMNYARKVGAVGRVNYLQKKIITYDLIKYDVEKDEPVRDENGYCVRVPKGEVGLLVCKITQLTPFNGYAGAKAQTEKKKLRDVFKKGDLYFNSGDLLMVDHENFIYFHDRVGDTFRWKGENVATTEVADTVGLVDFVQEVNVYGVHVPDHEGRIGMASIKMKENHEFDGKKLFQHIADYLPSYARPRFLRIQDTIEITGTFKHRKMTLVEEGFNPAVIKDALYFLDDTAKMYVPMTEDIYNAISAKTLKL
UniProt Q6NXT4: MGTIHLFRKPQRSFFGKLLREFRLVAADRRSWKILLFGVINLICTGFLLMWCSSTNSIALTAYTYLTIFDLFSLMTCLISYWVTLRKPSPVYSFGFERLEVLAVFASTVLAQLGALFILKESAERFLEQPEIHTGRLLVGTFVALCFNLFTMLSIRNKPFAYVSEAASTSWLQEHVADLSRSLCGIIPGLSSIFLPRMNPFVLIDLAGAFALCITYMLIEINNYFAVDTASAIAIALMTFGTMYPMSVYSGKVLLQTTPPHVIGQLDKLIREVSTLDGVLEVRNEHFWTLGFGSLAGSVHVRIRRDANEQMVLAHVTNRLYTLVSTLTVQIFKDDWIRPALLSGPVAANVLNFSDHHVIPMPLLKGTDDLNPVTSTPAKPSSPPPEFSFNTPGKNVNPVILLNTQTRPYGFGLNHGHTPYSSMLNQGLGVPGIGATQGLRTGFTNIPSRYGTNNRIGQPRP
UniProt Q9HC21: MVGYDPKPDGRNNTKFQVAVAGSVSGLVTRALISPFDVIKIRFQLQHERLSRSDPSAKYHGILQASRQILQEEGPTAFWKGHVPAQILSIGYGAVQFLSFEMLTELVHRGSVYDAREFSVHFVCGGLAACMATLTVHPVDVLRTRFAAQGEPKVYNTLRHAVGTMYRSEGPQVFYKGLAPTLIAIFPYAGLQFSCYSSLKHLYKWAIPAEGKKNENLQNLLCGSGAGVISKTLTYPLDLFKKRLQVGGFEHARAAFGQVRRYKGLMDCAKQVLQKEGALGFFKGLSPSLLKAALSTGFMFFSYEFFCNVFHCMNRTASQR

Key:
Experiment in all cases: log2 fold change, soluble protein after heating vs DMSO (PISA); higher = thermal stabilisation; K562 lysate, 10 uM; active = over 0.2 and 3.5 SD of the protein, either way, in both replicates (recomputed)
[1] = compound: CN1CC[C@H](c2c(O)cc(O)c3c(=O)cc(-c4ccccc4Cl)oc23)[C@H](O)C1 [alvocidib]
Summary of the method: (§1)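 Following dounce homogenisation of K562 pellets in PBS pH 7.4 with 1 mM MgCl2, crude extract at 1 mg/mL protein was incubated for 30 min with 10 μM compound. Aliquots were then heated for 3 min over 48°C-58°C and pooled, NP-40 was added to 0.5% at 4°C, and soluble protein was recovered as the supernatant at 21,000xg for 90 min. Channel-sum-equalised TMTpro 16plex LC-MS/MS quantified this protein. Each value, from duplicates, is a log-two fold change in thermal stability relative to solvent controls.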

[2] = compound: CN1CCc2c(c3ccccc3n2Cc2ccc(C(=O)NO)cc2)C1 [Tubastatin A]
Summary of the method: as §1

[3] = compound: CNC(=O)C1=CC=CC=C1NC2=NC(=NC=C2Cl)NC3=C(C=C(C=C3)N4CCOCC4)OC
Summary of the method: as §1

[4] = compound: CNC(=O)c1ccc(Nc2ncc(C(F)(F)F)c(NCc3nccnc3N(C)S(C)(=O)=O)n2)cc1 [defactinib]
Summary of the method: as §1

[5] = compound: CNc1nc(-c2ccc3c(N)n[nH]c3c2)cc(N2C[C@@H](C(=O)NC3CCCCC3)CC[C@H]2C)n1
Summary of the method: as §1

[6] = compound: COC(=O)N[C@@H](C)CNc1nccc(-c2cn(C(C)C)nc2-c2cc(Cl)cc(NS(C)(=O)=O)c2F)n1 [encorafenib]
Summary of the method: as §1

[7] = compound: COC(=O)[C@H](CCSC)NC(=O)C1=C(C=C(C=C1)NC[C@H](CS)N)C2=CC=CC=C2
Summary of the method: as §1

[8] = compound: COc1cc(Nc2ncc3c(n2)-c2ccc(Cl)cc2C(c2c(F)cccc2OC)=NC3)ccc1C(=O)O [alisertib]
Summary of the method: as §1

[9] = compound: COc1cc2nc(-c3cc(F)ccc3O)nc(N[C@@H]3CNC[C@H]3C(C)(C)O)c2cc1OC
Summary of the method: as §1

[10] = compound: COc1cc2ncnc(Nc3ccc(F)c(Cl)c3)c2cc1OCCCN1CCOCC1 [gefitinib]
Summary of the method: as §1

[11] = compound: CS(=O)(=O)CCNCc1ccc(-c2ccc3ncnc(Nc4ccc(OCc5cccc(F)c5)c(Cl)c4)c3c2)o1 [lapatinib]
Summary of the method: as §1

[12] = compound: C[C@@H](Oc1cc(-c2cnn(C3CCNCC3)c2)cnc1N)c1c(Cl)ccc(F)c1Cl [crizotinib]
Summary of the method: as §1

[13] = compound: C[C@H](C1=CC=C(C=C1)C(=O)NC2=C3C=CNC3=NC=C2)N
Summary of the method: as §1

[14] = compound: C[C@H](Nc1ncnc2nc[nH]c12)c1cc2cccc(Cl)c2c(=O)n1-c1ccccc1 [duvelisib]
Summary of the method: as §1

[15] = compound: Cc1cc(Nc2cc(CN3CCOCC3)c3nc(C)c(Cc4ccc(Cl)cc4F)n3n2)n[nH]1 [gandotinib]
Summary of the method: as §1

[16] = compound: Cc1cc(Nc2cc(N3CCN(C)CC3)nc(Sc3ccc(NC(=O)C4CC4)cc3)n2)n[nH]1 [tozasertib]
Summary of the method: as §1

[17] = compound: Cc1ccc(-n2nc(C(C)(C)C)cc2NC(=O)Nc2ccc(OCCN3CCOCC3)c3ccccc23)cc1 [doramapimod]
Summary of the method: as §1

[18] = compound: Cc1cccc(CC(=O)N2CCc3c2ccc(-c2cn(C)c4ncnc(N)c24)c3F)n1
Summary of the method: as §1

[19] = compound: CS(=O)(=O)N1CCN(Cc2cc3nc(-c4cccc5[nH]ncc45)nc(N4CCOCC4)c3s2)CC1 [pictilisib]
Summary of the method: as §1

[20] = compound: Cc1ccc(NC(=O)c2ccc(CN3CC[C@H](N(C)C)C3)c(C(F)(F)F)c2)cc1Nc1nccc(-c2cncnc2)n1 [bafetinib]
Summary of the method: as §1

Measured: log2 fold change

SLC25A36 (UniProt Q96CQ1)
inactive: [1] 0.024 | [2] -0.047 | [3] 0.048 | [4] 0.068 | [5] 0.029 | [6] 0.041 | [7] 0 | [8] 0.04 | [9] 0.049 | [10] 0.025 | [11] -0.019 | [12] 0.022 | [13] 0.029 | [14] -0.122 | [15] 0.024 | [16] -0.09 | [17] -0.011 | [18] -0.006

SLC39A8 (UniProt Q9C0K1)
inactive: [1] -0.086 | [2] -0.002 | [3] 0.025 | [4] 0.013 | [6] 0.19 | [7] 0.018 | [8] -0.076 | [9] -0.095 | [10] -0.065 | [11] 0.014 | [12] -0.074 | [13] -0.115 | [15] 0.111 | [16] -0.013 | [17] 0.057 | [18] 0.085

SLC25A24 (UniProt Q6NUK1)
inactive: [1] 0.031 | [2] 0 | [3] -0.003 | [4] 0.023 | [5] 0.009 | [6] 0.001 | [7] 0.007 | [8] -0.009 | [9] 0.012 | [10] 0.011 | [11] -0.032 | [19] -0.049 | [12] 0.039 | [13] 0.006 | [14] -0.025 | [15] -0.01 | [16] 0.018 | [17] -0.018 | [20] 0.04 | [18] -0.011

SLC27A4 (UniProt Q6P1M0)
inactive: [1] -0.019 | [2] -0.021 | [3] -0.009 | [4] -0.157 | [5] -0.062 | [6] 0.135 | [7] 0.006 | [8] 0.039 | [9] 0.062 | [10] -0.067 | [11] -0.052 | [19] -0.005 | [12] -0.049 | [13] -0.04 | [14] 0.037 | [15] 0.095 | [16] -0.045 | [17] 0.149 | [20] -0.057 | [18] 0.052

SLC22A5 isoform 3 (UniProt O76082)
inactive: [1] 0.171 | [2] 0.029 | [3] -0.036 | [4] -0.351 | [5] -0.006 | [9] 0.113 | [11] -0.042 | [19] -0.104 | [12] 0.26 | [13] -0.201 | [14] 0.034 | [15] 0.118 | [17] -0.286 | [20] -0.009 | [18] -0.073

SLC3A2 (UniProt F5GZS6)
inactive: [1] 0.025 | [2] 0.044 | [3] 0.141 | [5] 0.117 | [6] 0.026 | [7] -0.059 | [8] 0.105 | [9] 0.13 | [10] 0.167 | [11] -0.008 | [19] 0.045 | [13] -0.08 | [14] -0.067 | [15] 0.061 | [16] -0.004 | [20] -0.024 | [18] 0.185

SLC9A6 isoform 2 (UniProt Q92581)
inactive: [1] 0.028 | [2] 0.069 | [3] 0.042 | [4] 0 | [5] -0.028 | [6] 0.016 | [7] -0.057 | [9] 0.024 | [11] 0.003 | [19] -0.048 | [12] 0.055 | [13] 0.1 | [14] -0.009 | [15] -0.183 | [16] 0.036 | [17] 0.089 | [20] 0.148 | [18] -0.156

SLC40A1 (UniProt Q9NP59)
inactive: [1] 0.002 | [2] 0.145 | [3] -0.05 | [4] 0.087 | [5] -0.029 | [6] 0.013 | [7] -0.072 | [8] 0.018 | [9] 0.039 | [10] -0.01 | [11] -0.019 | [12] 0.111 | [13] -0.164 | [14] 0.099 | [15] 0.054 | [16] -0.035 | [17] -0.056 | [18] 0.018

SLC35B4 (UniProt Q969S0)
inactive: [1] -0.08 | [2] 0.032 | [3] -0.043 | [4] 0.075 | [6] 0.09 | [7] -0.223 | [8] -0.037 | [9] -0.145 | [10] -0.022 | [11] -0.061 | [19] 0.037 | [12] -0.104 | [13] -0.101 | [15] 0.058 | [16] -0.173 | [17] 0.064 | [20] 0.17 | [18] 0.137

SLC25A5 (UniProt P05141)
inactive: [1] 0.075 | [2] 0.067 | [3] 0.06 | [4] -0.014 | [5] 0.105 | [6] -0.025 | [7] 0.079 | [8] 0.022 | [9] 0.025 | [10] -0.052 | [11] 0.008 | [19] 0.006 | [12] 0.034 | [13] 0.112 | [14] -0.037 | [15] -0.064 | [16] -0.06 | [17] -0.077 | [20] 0.066 | [18] -0.102

SLC35C2 isoform 3 (UniProt Q9NQQ7)
inactive: [1] 0.048 | [2] 0.025 | [3] -0.018 | [5] 0.108 | [6] 0.066 | [7] -0.028 | [8] -0.13 | [9] 0.098 | [10] 0.15 | [11] -0.095 | [19] -0.001 | [12] 0.035 | [13] -0.163 | [14] -0.056 | [15] -0.095 | [16] 0.141 | [17] -0.09 | [20] -0.016 | [18] -0.134

SLC25A30 (UniProt Q5SVS4)
inactive: [1] -0.069 | [2] -0.037 | [3] 0.026 | [4] -0.015 | [5] 0.086 | [8] -0.065 | [9] -0.005 | [10] -0.051 | [11] -0.029 | [19] -0.037 | [12] 0.02 | [13] -0.042 | [14] 0.086 | [15] 0.046 | [17] -0.033 | [20] -0.048 | [18] 0.01

SLC38A2 (UniProt Q96QD8)
inactive: [1] -0.034 | [2] -0.105 | [3] -0.034 | [4] 0.021 | [5] -0.054 | [6] 0.119 | [7] -0.02 | [8] -0.047 | [9] 0.009 | [10] 0.027 | [11] -0.053 | [19] 0 | [12] 0.036 | [13] -0.106 | [14] 0.035 | [15] 0.123 | [16] 0.035 | [17] 0.025 | [20] -0.002 | [18] 0.109

SLC35E1 (UniProt Q96K37)
inactive: [1] -0.015 | [2] 0.012 | [3] 0.011 | [4] 0.024 | [5] 0.038 | [6] 0.015 | [7] 0.031 | [9] 0 | [11] -0.048 | [19] 0.061 | [12] 0.018 | [13] -0.071 | [14] 0.021 | [15] -0.031 | [16] -0.125 | [17] 0.019 | [20] -0.07 | [18] 0.027

SLC27A2 (UniProt O14975)
inactive: [1] 0.005 | [2] -0.009 | [3] 0.216 | [4] -0.044 | [5] 0.172 | [6] 0.063 | [7] 0.019 | [8] 0.002 | [9] 0.017 | [10] -0.089 | [11] 0.063 | [19] -0.049 | [12] -0.092 | [13] -0.067 | [14] 0.031 | [15] 0.286 | [16] 0.117 | [17] 0.064 | [20] 0.015 | [18] -0.014

SLC30A6 isoform 2 (UniProt Q6NXT4)
inactive: [1] 0.023 | [2] 0.126 | [3] 0.016 | [4] 0.011 | [6] 0.003 | [8] 0.003 | [9] -0.18 | [10] -0.005 | [11] 0.115 | [19] -0.027 | [12] 0.009 | [13] -0.095 | [15] 0.048 | [16] 0.114 | [17] -0.058 | [20] 0.034 | [18] 0.116
active: [7] -0.322

SLC25A19 (UniProt Q9HC21)
inactive: [1] 0.008 | [2] 0.055 | [3] 0.016 | [4] -0.036 | [5] 0.014 | [6] 0.038 | [7] 0.051 | [8] -0.026 | [9] -0.047 | [10] -0.037 | [11] 0.024 | [19] 0.017 | [12] 0.014 | [13] 0.009 | [14] -0.016 | [15] -0.005 | [16] 0.004 | [17] -0.012 | [20] -0.005 | [18] 0.044

Taken from the entries so far (4 entries):
SLC25A30 (UniProt Q5SVS4)
inactive: [1] -0.069 | [2] -0.037 | [3] 0.026 | [4] -0.015 | [5] 0.086 | [8] -0.065 | [9] -0.005 | [10] -0.051 | [11] -0.029 | [19] -0.037 | [12] 0.02 | [13] -0.042 | [14] 0.086 | [15] 0.046 | [17] -0.033 | [20] -0.048 | [18] 0.01

SLC38A2 (UniProt Q96QD8)
inactive: [1] -0.034 | [2] -0.105 | [3] -0.034 | [4] 0.021 | [5] -0.054 | [6] 0.119 | [7] -0.02 | [8] -0.047 | [9] 0.009 | [10] 0.027 | [11] -0.053 | [19] 0 | [12] 0.036 | [13] -0.106 | [14] 0.035 | [15] 0.123 | [16] 0.035 | [17] 0.025 | [20] -0.002 | [18] 0.109

SLC35E1 (UniProt Q96K37)
inactive: [1] -0.015 | [2] 0.012 | [3] 0.011 | [4] 0.024 | [5] 0.038 | [6] 0.015 | [7] 0.031 | [9] 0 | [11] -0.048 | [19] 0.061 | [12] 0.018 | [13] -0.071 | [14] 0.021 | [15] -0.031 | [16] -0.125 | [17] 0.019 | [20] -0.07 | [18] 0.027

SLC27A2 (UniProt O14975)
inactive: [1] 0.005 | [2] -0.009 | [3] 0.216 | [4] -0.044 | [5] 0.172 | [6] 0.063 | [7] 0.019 | [8] 0.002 | [9] 0.017 | [10] -0.089 | [11] 0.063 | [19] -0.049 | [12] -0.092 | [13] -0.067 | [14] 0.031 | [15] 0.286 | [16] 0.117 | [17] 0.064 | [20] 0.015 | [18] -0.014
